Experimental data as given in paper PMC7585092.
Results are given in words; binding and its absence hold for the method and conditions named. Binding seen in cells or lysates may run through a third protein. Some entries that bind do so weakly or less than the wild type. Tags and fused reporters may be left off the sequences shown.

Protein sequences, listed by entry. Tags and fused reporters are not part of them.
UniProt Q5S007: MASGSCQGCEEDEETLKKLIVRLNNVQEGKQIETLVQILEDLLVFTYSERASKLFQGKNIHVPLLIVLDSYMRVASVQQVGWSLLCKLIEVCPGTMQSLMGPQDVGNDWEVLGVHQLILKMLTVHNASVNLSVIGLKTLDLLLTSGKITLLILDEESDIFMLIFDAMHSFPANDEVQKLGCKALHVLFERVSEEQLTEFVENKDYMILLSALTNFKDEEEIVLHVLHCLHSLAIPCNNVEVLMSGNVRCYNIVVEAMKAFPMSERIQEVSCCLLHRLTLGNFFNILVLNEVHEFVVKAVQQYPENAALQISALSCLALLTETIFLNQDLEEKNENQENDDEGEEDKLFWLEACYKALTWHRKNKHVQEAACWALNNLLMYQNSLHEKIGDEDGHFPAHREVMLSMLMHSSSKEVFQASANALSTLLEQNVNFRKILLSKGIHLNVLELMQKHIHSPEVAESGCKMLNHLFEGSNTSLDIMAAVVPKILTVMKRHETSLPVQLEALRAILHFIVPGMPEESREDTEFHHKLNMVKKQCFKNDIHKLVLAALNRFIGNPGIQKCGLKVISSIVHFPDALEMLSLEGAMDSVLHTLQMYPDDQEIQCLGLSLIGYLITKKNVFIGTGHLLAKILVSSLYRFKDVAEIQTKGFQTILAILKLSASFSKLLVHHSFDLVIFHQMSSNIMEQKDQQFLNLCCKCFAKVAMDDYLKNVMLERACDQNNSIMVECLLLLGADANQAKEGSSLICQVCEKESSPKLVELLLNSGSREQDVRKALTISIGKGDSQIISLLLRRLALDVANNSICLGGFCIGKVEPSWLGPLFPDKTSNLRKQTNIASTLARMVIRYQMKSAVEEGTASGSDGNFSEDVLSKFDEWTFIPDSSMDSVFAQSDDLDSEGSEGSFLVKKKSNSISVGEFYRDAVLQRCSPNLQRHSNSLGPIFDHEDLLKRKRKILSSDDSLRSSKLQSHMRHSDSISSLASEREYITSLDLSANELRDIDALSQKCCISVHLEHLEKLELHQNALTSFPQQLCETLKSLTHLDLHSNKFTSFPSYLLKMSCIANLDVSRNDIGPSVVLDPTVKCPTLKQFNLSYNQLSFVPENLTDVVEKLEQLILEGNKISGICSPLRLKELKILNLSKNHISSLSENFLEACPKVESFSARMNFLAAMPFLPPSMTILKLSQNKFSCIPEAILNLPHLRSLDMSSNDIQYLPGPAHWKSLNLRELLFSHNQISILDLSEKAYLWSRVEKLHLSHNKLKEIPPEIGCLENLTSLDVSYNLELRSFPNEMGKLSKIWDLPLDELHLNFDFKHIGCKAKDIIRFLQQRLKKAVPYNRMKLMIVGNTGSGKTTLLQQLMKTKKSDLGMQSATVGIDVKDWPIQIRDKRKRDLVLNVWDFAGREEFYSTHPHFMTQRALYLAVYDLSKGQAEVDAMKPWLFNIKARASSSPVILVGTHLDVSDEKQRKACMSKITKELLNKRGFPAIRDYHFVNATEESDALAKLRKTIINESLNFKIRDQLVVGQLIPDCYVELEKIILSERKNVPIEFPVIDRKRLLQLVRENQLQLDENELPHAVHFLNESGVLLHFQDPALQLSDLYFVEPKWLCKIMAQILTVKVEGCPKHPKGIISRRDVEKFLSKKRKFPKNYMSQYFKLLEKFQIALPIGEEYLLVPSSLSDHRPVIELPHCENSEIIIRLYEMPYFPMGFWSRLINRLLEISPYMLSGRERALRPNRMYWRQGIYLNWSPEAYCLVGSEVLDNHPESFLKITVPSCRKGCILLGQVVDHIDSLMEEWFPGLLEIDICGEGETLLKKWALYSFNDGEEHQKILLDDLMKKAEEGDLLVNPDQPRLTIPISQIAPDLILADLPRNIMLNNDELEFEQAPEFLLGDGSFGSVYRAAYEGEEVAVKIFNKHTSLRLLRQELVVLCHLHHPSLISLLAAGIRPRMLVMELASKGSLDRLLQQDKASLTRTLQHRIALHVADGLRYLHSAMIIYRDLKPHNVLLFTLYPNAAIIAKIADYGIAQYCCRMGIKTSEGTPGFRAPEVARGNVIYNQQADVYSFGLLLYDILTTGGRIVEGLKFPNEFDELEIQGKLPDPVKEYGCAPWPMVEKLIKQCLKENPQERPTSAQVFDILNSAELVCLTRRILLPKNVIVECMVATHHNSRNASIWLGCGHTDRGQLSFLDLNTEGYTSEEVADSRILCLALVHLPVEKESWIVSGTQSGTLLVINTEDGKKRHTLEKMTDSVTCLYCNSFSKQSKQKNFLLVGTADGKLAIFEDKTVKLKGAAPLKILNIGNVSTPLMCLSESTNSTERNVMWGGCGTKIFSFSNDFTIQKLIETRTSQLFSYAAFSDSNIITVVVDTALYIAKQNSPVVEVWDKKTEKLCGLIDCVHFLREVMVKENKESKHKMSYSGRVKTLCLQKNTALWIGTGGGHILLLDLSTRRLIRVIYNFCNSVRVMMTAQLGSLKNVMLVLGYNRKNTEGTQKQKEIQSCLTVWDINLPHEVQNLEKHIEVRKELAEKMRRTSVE

Target: GFP-tagged Leucine-rich repeat kinase 2 (LRRK2) (human) (UniProt Q5S007)
Test: co-IP; HEK293T cells co-transfected with LRRK2-GFP and PRDX2-flag; lysed in M-PER buffer 24h after transfection; lysates incubated with anti GFP conjugated beads O/N at 4 °C; washed 5 times with NP40 buffer (50mM Tris pH7.4, 150mM NaCl and 1% NP40); western blot with anti-flag

B1: FLAG-tagged Peroxiredoxin 2 (PRDX2) (protein, UniProt P32119 1-198)
chain: MASGNARIGKPAPDFKATAVVDGAFKEVKLSDYKGKYVVLFFYPLDFTFVCPTEIIAFSNRAEDFRKLGCEVLGVSVDSQFTHLAWINTPRKEGGLGPLNIPLLADVTRRLSEDYGVLKTDEGIAYRGLFIIDGKGVLRQITVNDLPVGRSVDEALRLVQAFQYTDEHGEVCPAGWKPGSDTIKPNVDDSKEYFSKHN
For B1, the binding was “binds”.
